Measurements published in the supplement of paper PMC11732987, “Enantioselective OTUD7B fragment discovery through chemoproteomics screening and high-throughput optimisation” (Communications Chemistry, 2025).
Some of the results follow. The data scatter; read single values as rough.

Amino acid sequences for entries named in this document (tags omitted). A change or cut given only in a name is not applied to a line headed by its entry. Residues count along the entry.
UniProt P49815: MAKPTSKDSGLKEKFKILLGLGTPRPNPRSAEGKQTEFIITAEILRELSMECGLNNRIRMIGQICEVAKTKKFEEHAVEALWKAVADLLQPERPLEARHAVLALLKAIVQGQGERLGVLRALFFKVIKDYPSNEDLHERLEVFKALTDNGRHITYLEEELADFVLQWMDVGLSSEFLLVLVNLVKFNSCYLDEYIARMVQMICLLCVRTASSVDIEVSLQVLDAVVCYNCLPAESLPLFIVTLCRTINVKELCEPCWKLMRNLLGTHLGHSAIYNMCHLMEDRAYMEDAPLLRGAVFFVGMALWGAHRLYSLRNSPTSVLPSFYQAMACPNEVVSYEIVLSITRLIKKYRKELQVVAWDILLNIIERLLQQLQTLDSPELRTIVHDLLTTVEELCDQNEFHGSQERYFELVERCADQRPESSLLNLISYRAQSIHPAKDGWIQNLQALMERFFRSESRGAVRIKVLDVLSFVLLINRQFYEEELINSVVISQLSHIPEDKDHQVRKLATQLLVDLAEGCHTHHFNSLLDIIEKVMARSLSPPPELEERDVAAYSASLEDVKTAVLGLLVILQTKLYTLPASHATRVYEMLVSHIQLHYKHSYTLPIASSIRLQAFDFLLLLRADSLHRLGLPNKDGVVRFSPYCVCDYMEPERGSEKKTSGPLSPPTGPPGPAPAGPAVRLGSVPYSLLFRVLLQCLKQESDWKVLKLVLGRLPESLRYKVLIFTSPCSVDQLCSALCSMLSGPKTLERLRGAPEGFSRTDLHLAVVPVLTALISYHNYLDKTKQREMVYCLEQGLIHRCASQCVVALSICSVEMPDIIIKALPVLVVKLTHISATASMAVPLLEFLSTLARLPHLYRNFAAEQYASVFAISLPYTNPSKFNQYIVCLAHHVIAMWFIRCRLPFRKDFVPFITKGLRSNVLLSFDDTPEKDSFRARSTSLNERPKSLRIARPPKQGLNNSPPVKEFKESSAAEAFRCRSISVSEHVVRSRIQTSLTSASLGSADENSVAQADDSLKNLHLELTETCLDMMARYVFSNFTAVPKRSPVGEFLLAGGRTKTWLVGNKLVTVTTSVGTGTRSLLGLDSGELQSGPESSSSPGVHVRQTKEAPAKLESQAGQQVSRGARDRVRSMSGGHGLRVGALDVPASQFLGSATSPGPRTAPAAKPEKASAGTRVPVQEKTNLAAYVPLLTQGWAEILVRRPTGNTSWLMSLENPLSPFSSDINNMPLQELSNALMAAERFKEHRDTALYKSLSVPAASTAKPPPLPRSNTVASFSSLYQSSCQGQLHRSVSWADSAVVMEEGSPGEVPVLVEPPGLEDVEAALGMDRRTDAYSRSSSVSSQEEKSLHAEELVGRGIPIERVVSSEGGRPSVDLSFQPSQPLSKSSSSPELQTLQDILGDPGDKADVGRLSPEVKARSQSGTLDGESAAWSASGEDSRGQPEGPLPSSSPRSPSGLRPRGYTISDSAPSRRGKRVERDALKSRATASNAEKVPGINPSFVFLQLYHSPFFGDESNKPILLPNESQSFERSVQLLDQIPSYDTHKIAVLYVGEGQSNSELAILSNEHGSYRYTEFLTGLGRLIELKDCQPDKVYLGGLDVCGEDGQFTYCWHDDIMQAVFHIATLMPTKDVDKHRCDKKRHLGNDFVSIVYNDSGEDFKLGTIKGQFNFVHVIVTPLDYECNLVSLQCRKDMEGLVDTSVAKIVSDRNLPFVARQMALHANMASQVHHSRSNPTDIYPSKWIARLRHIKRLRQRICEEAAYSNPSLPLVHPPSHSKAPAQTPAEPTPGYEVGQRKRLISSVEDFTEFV
UniProt Q8TBC4: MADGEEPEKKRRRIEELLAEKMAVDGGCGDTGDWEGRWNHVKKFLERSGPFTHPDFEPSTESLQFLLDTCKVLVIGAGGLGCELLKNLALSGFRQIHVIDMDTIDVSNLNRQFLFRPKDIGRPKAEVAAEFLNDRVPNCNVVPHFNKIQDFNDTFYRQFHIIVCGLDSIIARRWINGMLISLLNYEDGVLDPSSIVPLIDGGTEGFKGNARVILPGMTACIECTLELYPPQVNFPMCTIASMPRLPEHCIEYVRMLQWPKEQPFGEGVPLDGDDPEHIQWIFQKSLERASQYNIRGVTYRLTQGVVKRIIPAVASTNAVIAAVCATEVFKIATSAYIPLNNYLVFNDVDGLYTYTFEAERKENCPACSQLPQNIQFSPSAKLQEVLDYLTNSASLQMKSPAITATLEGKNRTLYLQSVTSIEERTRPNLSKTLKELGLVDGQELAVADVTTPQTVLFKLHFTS
UniProt Q8IWV8: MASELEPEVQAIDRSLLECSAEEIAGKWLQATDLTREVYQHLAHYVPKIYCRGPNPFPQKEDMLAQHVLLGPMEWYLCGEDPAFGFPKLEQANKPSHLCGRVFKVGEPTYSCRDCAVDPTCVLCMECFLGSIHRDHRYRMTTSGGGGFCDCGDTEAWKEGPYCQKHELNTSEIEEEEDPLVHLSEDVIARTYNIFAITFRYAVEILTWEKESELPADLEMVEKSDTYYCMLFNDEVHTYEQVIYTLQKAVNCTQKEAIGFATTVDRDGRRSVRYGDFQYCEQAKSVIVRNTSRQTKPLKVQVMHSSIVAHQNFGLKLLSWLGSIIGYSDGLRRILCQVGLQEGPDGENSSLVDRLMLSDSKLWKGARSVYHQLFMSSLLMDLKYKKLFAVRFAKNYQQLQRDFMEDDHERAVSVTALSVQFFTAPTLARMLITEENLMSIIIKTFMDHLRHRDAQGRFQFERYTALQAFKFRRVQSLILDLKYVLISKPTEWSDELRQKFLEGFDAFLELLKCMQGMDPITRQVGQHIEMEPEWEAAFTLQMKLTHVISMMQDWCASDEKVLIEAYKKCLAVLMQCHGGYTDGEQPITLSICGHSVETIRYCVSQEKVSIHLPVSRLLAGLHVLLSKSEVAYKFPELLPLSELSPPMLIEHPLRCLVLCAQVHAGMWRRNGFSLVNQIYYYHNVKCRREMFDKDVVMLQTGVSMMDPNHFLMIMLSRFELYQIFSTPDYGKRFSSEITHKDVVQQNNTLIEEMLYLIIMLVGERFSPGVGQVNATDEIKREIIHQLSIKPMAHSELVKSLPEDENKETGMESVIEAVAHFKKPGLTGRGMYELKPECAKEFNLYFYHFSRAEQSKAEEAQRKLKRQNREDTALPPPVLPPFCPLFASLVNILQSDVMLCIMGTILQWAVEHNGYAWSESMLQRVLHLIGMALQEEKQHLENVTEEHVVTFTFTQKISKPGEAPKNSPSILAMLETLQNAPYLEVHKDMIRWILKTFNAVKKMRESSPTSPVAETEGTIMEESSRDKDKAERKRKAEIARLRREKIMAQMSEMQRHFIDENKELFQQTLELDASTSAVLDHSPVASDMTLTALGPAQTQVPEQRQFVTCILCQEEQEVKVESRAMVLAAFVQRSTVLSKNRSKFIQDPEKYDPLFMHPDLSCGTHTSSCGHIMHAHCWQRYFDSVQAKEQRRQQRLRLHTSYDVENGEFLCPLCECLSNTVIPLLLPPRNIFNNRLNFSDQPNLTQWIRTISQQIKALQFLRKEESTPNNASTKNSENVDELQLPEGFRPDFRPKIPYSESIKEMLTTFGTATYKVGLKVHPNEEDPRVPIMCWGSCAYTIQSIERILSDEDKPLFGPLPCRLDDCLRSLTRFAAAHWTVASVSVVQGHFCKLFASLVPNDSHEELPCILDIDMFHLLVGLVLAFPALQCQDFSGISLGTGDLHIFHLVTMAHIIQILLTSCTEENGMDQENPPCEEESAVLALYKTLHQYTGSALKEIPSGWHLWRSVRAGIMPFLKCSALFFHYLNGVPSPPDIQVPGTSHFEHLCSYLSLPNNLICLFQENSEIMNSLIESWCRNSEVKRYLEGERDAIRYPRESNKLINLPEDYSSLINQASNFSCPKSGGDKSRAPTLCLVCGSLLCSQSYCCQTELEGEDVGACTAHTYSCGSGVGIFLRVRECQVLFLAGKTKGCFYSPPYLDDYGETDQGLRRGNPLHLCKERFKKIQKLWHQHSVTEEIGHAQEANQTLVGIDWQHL
UniProt Q6NXR4, 174-202: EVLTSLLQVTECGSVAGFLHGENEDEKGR
UniProt Q96AY4: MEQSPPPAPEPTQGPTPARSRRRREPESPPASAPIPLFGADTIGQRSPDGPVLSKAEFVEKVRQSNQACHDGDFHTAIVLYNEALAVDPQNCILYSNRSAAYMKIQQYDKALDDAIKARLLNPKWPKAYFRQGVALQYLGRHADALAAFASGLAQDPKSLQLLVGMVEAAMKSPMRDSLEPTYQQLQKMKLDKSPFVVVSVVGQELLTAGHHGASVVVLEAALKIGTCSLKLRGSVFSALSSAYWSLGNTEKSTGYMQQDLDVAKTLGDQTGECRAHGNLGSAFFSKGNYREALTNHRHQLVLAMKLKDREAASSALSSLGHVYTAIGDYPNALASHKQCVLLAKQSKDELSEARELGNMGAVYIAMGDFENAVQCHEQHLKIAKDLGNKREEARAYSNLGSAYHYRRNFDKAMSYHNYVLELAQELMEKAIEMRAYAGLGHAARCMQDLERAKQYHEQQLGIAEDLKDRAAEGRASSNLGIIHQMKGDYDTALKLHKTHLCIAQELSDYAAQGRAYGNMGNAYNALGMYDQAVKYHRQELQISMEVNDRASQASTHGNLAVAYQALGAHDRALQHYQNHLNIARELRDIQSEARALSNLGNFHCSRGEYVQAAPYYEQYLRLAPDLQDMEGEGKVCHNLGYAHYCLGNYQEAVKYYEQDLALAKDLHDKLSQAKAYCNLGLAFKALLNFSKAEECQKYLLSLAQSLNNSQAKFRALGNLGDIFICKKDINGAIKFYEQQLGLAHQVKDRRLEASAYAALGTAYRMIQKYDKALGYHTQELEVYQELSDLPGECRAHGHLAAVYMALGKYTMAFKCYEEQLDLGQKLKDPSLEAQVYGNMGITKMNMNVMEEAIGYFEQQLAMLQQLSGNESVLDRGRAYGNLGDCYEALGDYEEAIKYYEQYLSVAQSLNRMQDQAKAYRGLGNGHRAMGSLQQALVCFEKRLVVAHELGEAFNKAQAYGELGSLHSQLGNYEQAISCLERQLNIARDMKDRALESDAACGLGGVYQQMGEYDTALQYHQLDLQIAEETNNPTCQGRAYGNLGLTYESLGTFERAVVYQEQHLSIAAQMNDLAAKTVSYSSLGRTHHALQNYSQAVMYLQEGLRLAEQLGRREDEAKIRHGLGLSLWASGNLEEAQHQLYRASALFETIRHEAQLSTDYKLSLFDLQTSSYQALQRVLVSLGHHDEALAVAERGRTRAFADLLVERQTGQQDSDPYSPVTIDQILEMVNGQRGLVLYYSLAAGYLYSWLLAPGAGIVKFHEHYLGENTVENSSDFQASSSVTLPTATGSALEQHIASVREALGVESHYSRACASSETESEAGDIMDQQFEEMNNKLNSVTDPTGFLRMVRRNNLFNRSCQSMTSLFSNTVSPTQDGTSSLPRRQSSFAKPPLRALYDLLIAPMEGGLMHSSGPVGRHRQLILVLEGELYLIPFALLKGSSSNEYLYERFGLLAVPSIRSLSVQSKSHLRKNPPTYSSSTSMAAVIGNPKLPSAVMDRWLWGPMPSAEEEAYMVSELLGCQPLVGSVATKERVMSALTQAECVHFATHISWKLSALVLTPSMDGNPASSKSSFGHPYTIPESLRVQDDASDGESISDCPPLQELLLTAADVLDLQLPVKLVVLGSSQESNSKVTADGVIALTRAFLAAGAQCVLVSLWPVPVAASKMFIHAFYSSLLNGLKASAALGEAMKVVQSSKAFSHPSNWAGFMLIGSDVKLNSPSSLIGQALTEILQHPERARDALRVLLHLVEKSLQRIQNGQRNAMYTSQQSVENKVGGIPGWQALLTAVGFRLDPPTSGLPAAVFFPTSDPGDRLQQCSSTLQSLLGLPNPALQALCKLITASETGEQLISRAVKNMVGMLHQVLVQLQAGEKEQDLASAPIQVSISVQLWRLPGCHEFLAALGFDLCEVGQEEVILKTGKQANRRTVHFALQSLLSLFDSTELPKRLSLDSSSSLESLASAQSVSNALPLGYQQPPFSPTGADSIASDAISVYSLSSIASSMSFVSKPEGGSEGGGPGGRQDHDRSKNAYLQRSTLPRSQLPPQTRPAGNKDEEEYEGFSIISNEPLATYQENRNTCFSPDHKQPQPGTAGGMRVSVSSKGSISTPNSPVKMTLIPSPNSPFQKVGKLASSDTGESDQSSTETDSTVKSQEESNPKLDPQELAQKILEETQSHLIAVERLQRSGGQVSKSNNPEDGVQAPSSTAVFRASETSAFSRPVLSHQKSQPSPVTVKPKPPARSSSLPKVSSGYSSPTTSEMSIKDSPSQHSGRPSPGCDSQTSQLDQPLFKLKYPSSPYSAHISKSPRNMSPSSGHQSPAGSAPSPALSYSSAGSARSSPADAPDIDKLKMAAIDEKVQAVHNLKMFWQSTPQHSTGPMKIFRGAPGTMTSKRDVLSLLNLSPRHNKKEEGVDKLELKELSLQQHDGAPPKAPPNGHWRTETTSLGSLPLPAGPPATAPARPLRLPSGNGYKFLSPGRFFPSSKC
UniProt O95801, 57-80: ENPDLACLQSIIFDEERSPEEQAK

What was measured:
[1] = compound: ClCC(=O)N[C@@H]1CCCc2ccccc12; assay: log2 mean competition ratio of IA-DTB cysteine labelling (DMSO/compound) (log2 ratio); higher = stronger cysteine engagement by compound; settings: treatment time: 4 h, cell line lysate: HEK293T
Description: (§1)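 IA-DTB competitive cysteine chemoproteomics in HEK293T RIPA lysate. Lysates were treated with compound 29 or 30 at 50 or 200 µM for 4 h, then IA-DTB (500 µM, 1 h), trypsin-digested, NeutrAvidin-enriched and analysed by diaPASEF. Competition ratio = intensity DMSO / intensity compound (n=4 treated, n=64 DMSO); binding: mean log2 CR ≥ 1 and p ≤ 0.05 plus QC filters. Target is the cysteine site.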

[2] = compound: ClCC(=O)N[C@H]1CCCc2ccccc12; assay: as above; settings: treatment time: 4 h, cell line lysate: HEK293T
Description: as §1

Target | log2 mean competition ratio ([1]; 50 µM) | log2 mean competition ratio ([1]; 200 µM) | log2 mean competition ratio ([2]; 50 µM) | log2 mean competition ratio ([2]; 200 µM)
TTC7A C337 (UniProt Q9ULT0) | 0.314 | -0.0956 | 0.00511 | -0.129
TTC39A C92 | -0.212 | -0.0143 | 0.21 | 0.221
TSC2 C791 (UniProt P49815) | 0.173 | 0.242 | -0.361 | -0.241
UBA3 C139 (UniProt Q8TBC4) | -0.233 | -0.308 | -0.709 | -0.487
TRMT2A C538 (UniProt Q8IZ69) | -0.482 | -0.265 | -0.226 | -0.168
UBE4B C534 (UniProt O95155) | -0.00408 | -0.241 | -0.229 | -0.0661
TRMT5 C321 (UniProt Q32P41) | 0.292 | 0.0195 | -0.108 | -0.156
TTF1 C73 (UniProt Q15361) | 0.305 | 0.0327 | 0.159 | -0.15
UBR2 C19 (UniProt Q8IWV8) | -0.212 | 0.00709 | -0.68 | -0.179
TTL C294 (UniProt Q8NG68) | -0.182 | -0.316 | 0.0495 | -0.0374
TTI2 C185 (UniProt Q6NXR4) | 0.0487 | 0.261 | 0.114 | 0.145
TTC28 C726 (UniProt Q96AY4) | 0.599 | 0.116 | 0.265 | 0.218
TTC4 C63 (UniProt O95801) | 0.00125 | 0.0261 | -0.355 | -0.299
UBAP1 C81 (UniProt Q9NZ09) | -0.26 | 0.229 | -0.038 | 0.571
TYK2 C536 (UniProt P29597) | 0.36 | 0.138 | -0.161 | 0.147
UBE2Z C254 (UniProt Q9H832) | -0.288 | -0.0746 | 0.223 | 0.384
UBR4 C1970 (UniProt Q5T4S7) | -0.00945 | -0.398 | -0.314 | -0.378
TUT7 C934 (UniProt Q5VYS8) | -0.212 | 0.0207 | -0.287 | -0.0688
U2AF1 C163 (UniProt Q01081) |  |  | 0.194 | 0.433
TTC21B C187 (UniProt Q7Z4L5) |  |  | 0.292 | 0.202
UBE2Z C243 (UniProt Q9H832) | -0.429 | -0.222 | 0.303 | -0.349
UBR4 C122 (UniProt Q5T4S7) |  |  | 0.243 | -0.29

As a short view, part of the list above:
Target | log2 mean competition ratio ([1]; 50 µM) | log2 mean competition ratio ([1]; 200 µM) | log2 mean competition ratio ([2]; 50 µM) | log2 mean competition ratio ([2]; 200 µM)
TTC28 C726 (UniProt Q96AY4) | 0.599 | 0.116 | 0.265 | 0.218
TTC4 C63 (UniProt O95801) | 0.00125 | 0.0261 | -0.355 | -0.299
